Measurements taken from patent US20250074868A1, “POLYHYDROXYLATED PHOTOINITIATORS” (Arkema France, priority 2021, published 2025).

Assay: UV-curing experiments, thumb-twist test for full cure under Hg lamp
Conditions: 2 g Ucecoat 2805, photoinitiator 2 phr, triethanolamine 5 phr, Hg lamp 30% intensity, 24-μm films, belt speed 20 m/min
Experimental: Formulations containing 2 g of the water-borne resin Ucecoat 2805 (Allnex), 0.04 g of a photoinitiator (2 phr=2 parts by weight per 100 parts by weight of resin), and 0.10 g triethanolamine (as amine synergist, 5 phr) were prepared by mixing the materials together and stirring at room temperature for ˜30 mins. The PIs and amine co-initiators were fully dissolved in the resin within this time. The formulations were then cured under a Hg lamp (30% intensity) in 24-μm films using a belt speed of 20 m/min. The number of passes under the Hg lamp required to achieve full-cure (as determined by the thumb-twist test, in which pressure is applied with a thumb in a twisting motion until no marks are left on the cured film surface), is given below.

SMILES | No. of passes to full cure
CC(C)(O)C(=O)c1ccc(OCCO)cc1 [SpeedCure 2959] | 2
O=C(c1ccccc1)c1ccc(OCC(=O)N(CCO)CCO)cc1OCC(=O)N(CCO)CCO [benzophenone polyol 1] | 2
